Test results as given in PubChem BioAssay AID504444 (National Center for Advancing Translational Sciences (NCATS), 2011).
The campaign covered roughly 360,000 compounds. About 7,500 (2.1%) were called active. Inconclusive means that the source gave no clear call. Such entries were picked first, then a sample of the others. Calls come from the whole dose curve; as a rule, active = well fitted inhibition curve with a large enough effect; inconclusive = small, poorly fitted or top-dose-only effect, or effect the other way; inactive = flat fitted curve, though single readings scatter. A potency beside an inconclusive call is a rough fit, not a confirmed value.
% is set by controls: 0 for no effect and ±100 for the full control effect; potency is the fitted concentration of half-maximal effect.

Experiment: Nrf2 qHTS screen for inhibitors; note: nearly all actives have a fitted effect of over 60% in size
Conditions: A549 ARE-Fluc reporter, luciferase luminescence, 18-24 h; activity change, negative = inhibition: at 46 µM (top of the series)
Summary of the method: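 Reporter: ARE-Fluc in A549. Exposure: 18-24 h, 37 °C, 5% CO2, 5% FBS OPTI-MEM. Readouts: fluorescent cytotoxicity (CellTiter-Fluor), then luminescent Nrf2 signal after BugLite.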
In the case of `O=S(=O)(Nc1ccc(-c2ccc3nncn3n2)cc1)c1cccc(F)c1`, the Potency is reported as inconclusive: 29.1 µM [falling, single point].
For `Cc1ccc(Nc2nnc(SCC(=O)Nc3ncc(S(=O)(=O)c4ccc([N+](=O)[O-])cc4)s3)s2)cc1`, the Potency was inconclusive: 16.4 µM [falling, partial curve, poor fit].
In the case of `COC(=O)c1cc(C(=O)N2CCN(c3cccc(Cl)c3)CC2)cc([N+](=O)[O-])c1`, the Potency is reported as inconclusive: 23.1 µM [activator, single point].
With `O=C(N/N=C/c1c[nH]c2c1ccc1ccccc12)c1ccc([N+](=O)[O-])cc1` the Potency was inconclusive: 0.58 µM [activator, full curve, poor fit].
In the case of `COc1ccc(CNC(=S)Nc2ccc(F)c(Cl)c2)cc1OC`, the Potency is reported as inconclusive: 23.1 µM [falling, partial curve, poor fit].
For `Fc1cccc(Cl)c1/C=N/Nc1ccccn1`, the Potency was inconclusive: 10.3 µM [activator, partial curve, poor fit].
In the case of `COc1ccc(-c2nc(NC(=O)CSc3nnc4ccccn34)ns2)cc1`, the Potency is reported as inconclusive: 0.82 µM [activator, full curve, poor fit].
In the case of `CSc1c[n+]2c(n1C)CCC2`, the “activity change, negative = inhibition” value is reported as inactive: -27.3%.
In the case of `O=C(NCCCN1CCCC1=O)c1ccc(Cl)c(Cl)c1`, the Potency is reported as inconclusive: 20.6 µM [activator, single point].
For `Cc1cc(C)c(C(=O)/C=C/c2ccc3c(c2)OCO3)c(=O)[nH]1`, the Potency was inconclusive: 32.6 µM [falling, single point].
In the case of `N#Cc1ccc(-c2csc(NC(=O)/C=C/c3cccs3)n2)cc1`, the Potency is reported as inconclusive: 0.411 µM [falling, full curve, poor fit].
In the case of `C/C(=N\NC(=O)c1c(Br)c(C)nn1C)c1cccc(NC(=O)C2CCC2)c1`, the Potency is reported as inconclusive: 4.61 µM [falling, partial curve, poor fit].
For `COc1ccc(C2=Nn3c(nnc3-c3ccccc3F)SC2)cc1OC1CCCC1`, the Potency was inconclusive: 29.1 µM [falling, single point].
With `Cc1ccc(S(=O)(=O)N(C)C)cc1NC(=O)COC(=O)/C(=C/c1ccc(F)cc1)c1cccs1` the Potency was inconclusive: 29.1 µM [falling, single point].
For `Cc1nc(-c2ccc(F)cc2)c(CC(=O)N(C)CC(=O)Nc2ccc(Cl)c(C(F)(F)F)c2)s1`, the Potency was inconclusive: 23.1 µM [falling, single point].
In the case of `CCC(=O)NC(=S)Nc1ccc(N2CCOCC2)cc1`, the Potency is reported as inconclusive: 23.1 µM [activator, single point].
For `CC1Cc2cc(S(=O)(=O)N3CCN(c4cccc(Cl)c4)CC3)ccc2N1C(=O)C1CC1` (stereo not drawn), the Potency was inconclusive: 7.31 µM [falling, single point].
With `CCCn1c(SCC(N)=O)nc2c(c1=O)C1(CCCC1)Cc1ccccc1-2` the Potency was inconclusive: 23.1 µM [falling, single point].
With `O=C1C(=O)N(CNc2ccccn2)c2ccccc21` the Potency was inconclusive: 1.16 µM [falling, partial curve, poor fit].
With `CC1CCN(Cc2c(C(=O)N/N=C/c3ccc(C(F)(F)F)cc3)nnn2-c2nonc2N)CC1` the Potency was active: 25.9 µM.
In the case of `CCC1=C(OC(=O)N(CC)CC)N2C(=O)OC(=NCCc3c[nH]c4ccccc34)[C@]2(Cc2ccccc2)[C@H]2C1=CC[C@H]1C(=O)N(C)C(=O)[C@H]12`, the Potency is reported as inconclusive: 23.1 µM [falling, single point].
With `CCCN1C(C(=O)c2ccccc2)=C(OC(=O)c2ccc(C)cc2)c2ccccc2S1(=O)=O` the Potency was active: 23.1 µM.
With `COc1c(C(=O)NCCSC(C)(C)C)ccc2ccccc12` the Potency was inconclusive: 4.61 µM [activator, partial curve].
For `O=C(NNc1ccccn1)C(=O)NNS(=O)(=O)c1ccc(F)cc1`, the Potency was inconclusive: 25.9 µM [falling, partial curve, poor fit].
In the case of `OCCC1CN(Cc2cccn2-c2ccccn2)CCN1C1CCCCC1` (stereo not drawn), the Potency is reported as inconclusive: 8.2 µM [activator, partial curve].
With `Cc1ccc(NS(=O)(=O)c2ccc3c(c2)N(C)C(=O)CO3)cc1C` the Potency was inconclusive: 9.2 µM [falling, partial curve, poor fit].
In the case of `Cc1ccc(NC2=C(Cl)C(=O)OC2OC(=O)c2ccccc2C)cc1` (stereo not drawn), the Potency is reported as inconclusive: 3.66 µM [falling, partial curve, poor fit].
In the case of `Cc1cc2nnc(SCC(=O)NCc3cccs3)n2c(N)n1`, the Potency is reported as inconclusive: 0.58 µM [activator, full curve, poor fit].
With `COc1ccc(C(C)(C)C)cc1NC(=O)c1ccc[n+]([O-])c1` the Potency was inconclusive: 29.1 µM [falling, single point].
For `COC(c1ccccc1)c1nnc(CCC(=O)N(C)Cc2cccc(-n3cccn3)c2)o1` (stereo not drawn), the Potency was inconclusive: 13 µM [activator, partial curve].
In the case of `O=C(O)c1ccc(N=Nc2c(O)ccc3ncccc23)cc1`, the Potency is reported as inconclusive: 32.6 µM [falling, single point].
In the case of `CCn1c(C)nnc1SCC(=O)Nc1ccc2c(c1)OCCO2`, the Potency is reported as inconclusive: 25.9 µM [activator, partial curve, poor fit].
For `COc1ccc(S(=O)(=O)N2CCN(C(=O)c3cc(-c4ccc(C)cc4)n[nH]3)CC2)cc1`, the Potency was inconclusive: 32.6 µM [falling, single point].
With `COc1ccc(NC(=O)c2cccc(N3C(=O)C4C5C=CC(C6CC56)C4C3=O)c2)cc1` (stereo not drawn) the Potency was active: 20.6 µM.
In the case of `CCOC(=O)c1csc(NC(=O)CCSc2ccccc2)n1`, the Potency is reported as inconclusive: 23.1 µM [falling, single point].
In the case of `ON=C1/C(=N\O)CC2(C/C1=N/O)OCCO2`, the Potency is reported as inconclusive: 29.1 µM [falling, partial curve, poor fit].
For `CCCCNC(=S)N(C)/N=C/c1c(C)[nH]c2ccccc12`, the Potency was inconclusive: 32.6 µM [falling, partial curve, poor fit].
In the case of `CCOC(=O)CNC(=O)c1ccc(SCC)cc1`, the Potency is reported as inconclusive: 16.4 µM [activator, single point].
